According to article doi:10.1101/2023.01.03.522557:
Results are given in words; binding and its absence hold for the method and conditions named. In cells and extracts the contact can be indirect. Some entries that bind do so weakly or less than the wild type.

Sequences of proteins named here, by UniProt entry; tags and fusion partners are left off.
UniProt A2AG58, whole entry: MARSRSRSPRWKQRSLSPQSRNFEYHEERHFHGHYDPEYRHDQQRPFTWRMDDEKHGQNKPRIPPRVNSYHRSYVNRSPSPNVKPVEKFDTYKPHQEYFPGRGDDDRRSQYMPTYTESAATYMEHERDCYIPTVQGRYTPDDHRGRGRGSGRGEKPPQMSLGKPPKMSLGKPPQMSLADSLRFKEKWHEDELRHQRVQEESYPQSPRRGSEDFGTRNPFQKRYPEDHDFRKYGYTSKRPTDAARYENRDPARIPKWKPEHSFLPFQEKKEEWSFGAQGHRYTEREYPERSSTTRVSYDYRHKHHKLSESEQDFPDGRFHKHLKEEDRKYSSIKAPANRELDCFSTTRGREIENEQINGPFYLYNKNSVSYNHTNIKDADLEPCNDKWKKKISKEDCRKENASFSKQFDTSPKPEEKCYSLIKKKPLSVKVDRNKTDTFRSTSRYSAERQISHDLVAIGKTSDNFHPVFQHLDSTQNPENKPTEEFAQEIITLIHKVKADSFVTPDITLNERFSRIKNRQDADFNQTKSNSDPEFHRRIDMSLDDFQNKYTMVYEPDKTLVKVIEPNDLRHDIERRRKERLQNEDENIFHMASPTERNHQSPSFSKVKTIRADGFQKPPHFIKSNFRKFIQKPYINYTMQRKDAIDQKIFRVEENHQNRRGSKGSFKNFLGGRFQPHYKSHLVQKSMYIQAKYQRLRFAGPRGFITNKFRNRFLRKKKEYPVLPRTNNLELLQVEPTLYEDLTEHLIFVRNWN
UniProt Q9QX47, whole entry: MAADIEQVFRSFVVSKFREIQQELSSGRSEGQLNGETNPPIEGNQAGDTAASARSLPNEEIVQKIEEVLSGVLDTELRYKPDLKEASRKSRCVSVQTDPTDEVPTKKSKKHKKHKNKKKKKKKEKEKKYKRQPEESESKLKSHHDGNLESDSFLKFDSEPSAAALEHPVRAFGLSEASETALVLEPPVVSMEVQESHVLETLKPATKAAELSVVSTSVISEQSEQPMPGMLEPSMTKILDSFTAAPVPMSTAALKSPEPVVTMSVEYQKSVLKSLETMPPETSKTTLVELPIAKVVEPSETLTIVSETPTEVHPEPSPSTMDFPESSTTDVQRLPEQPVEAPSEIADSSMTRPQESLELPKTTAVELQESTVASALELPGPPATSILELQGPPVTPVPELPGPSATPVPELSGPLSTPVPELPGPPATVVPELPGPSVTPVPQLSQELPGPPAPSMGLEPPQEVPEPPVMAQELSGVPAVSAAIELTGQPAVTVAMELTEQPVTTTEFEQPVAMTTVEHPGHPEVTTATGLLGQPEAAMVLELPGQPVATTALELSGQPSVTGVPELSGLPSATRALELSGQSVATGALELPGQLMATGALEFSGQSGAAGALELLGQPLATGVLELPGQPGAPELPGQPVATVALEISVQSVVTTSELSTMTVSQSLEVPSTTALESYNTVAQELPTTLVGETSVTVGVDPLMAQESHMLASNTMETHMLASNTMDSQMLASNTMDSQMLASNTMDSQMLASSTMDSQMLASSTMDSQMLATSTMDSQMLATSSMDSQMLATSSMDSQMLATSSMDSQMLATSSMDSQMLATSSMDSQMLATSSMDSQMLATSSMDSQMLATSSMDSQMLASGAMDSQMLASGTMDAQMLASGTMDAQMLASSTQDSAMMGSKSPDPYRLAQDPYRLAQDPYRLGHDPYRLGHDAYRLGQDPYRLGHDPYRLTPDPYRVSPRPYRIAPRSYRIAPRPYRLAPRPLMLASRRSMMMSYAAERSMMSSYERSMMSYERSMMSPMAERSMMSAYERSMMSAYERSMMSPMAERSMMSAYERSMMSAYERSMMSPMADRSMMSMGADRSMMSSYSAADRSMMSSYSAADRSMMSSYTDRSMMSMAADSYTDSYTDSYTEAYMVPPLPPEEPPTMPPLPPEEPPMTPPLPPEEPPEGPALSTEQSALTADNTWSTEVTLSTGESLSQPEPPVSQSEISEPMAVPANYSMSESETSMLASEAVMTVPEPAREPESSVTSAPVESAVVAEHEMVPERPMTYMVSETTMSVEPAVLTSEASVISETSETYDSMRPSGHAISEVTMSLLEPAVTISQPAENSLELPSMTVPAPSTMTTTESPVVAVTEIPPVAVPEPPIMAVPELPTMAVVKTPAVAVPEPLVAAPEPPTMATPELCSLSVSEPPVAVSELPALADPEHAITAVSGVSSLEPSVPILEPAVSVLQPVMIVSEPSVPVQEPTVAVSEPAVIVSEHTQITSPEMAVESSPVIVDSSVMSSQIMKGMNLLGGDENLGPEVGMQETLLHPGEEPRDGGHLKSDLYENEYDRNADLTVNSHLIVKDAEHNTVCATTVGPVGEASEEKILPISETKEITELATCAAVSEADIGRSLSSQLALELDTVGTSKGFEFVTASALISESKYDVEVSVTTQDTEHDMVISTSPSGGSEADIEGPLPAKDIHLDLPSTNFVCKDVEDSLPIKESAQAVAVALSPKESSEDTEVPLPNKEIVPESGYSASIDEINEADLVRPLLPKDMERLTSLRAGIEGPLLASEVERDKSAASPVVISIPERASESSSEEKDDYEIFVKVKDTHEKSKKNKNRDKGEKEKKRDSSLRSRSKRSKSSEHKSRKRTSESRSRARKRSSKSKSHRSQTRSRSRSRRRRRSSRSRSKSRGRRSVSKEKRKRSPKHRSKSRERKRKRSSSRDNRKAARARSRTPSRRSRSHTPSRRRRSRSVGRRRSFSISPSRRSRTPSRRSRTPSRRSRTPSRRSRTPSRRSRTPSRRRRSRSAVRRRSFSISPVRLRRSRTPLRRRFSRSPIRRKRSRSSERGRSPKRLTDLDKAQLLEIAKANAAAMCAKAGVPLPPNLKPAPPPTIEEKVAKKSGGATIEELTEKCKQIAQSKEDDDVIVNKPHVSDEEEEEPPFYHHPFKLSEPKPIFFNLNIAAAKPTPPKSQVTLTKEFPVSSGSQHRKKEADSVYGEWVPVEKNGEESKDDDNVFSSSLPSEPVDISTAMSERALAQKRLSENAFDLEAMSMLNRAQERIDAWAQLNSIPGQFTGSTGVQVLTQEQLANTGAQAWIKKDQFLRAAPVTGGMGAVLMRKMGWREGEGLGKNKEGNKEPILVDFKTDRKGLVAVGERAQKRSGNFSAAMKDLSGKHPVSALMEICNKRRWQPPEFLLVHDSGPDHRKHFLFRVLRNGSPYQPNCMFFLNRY

Target: 3XHA TOBF1 (mouse) (UniProt A2AG58)
Assay: co-IP

binding: binds
Substance: SON (from UniProt Q9QX47 1-2444)
